Assay results: PubChem BioAssay AID248 (DTP/NCI, 2004)
The list does not hold the whole screen: it covers a few groups of compounds. Other doses and runs of a compound may be missing. T/C: endpoint of the treated group in % of that of the vehicle group. Where survival is the endpoint, the PubChem record calls one and a half times the control and up active, and a quarter to a half above the control has no call in these data; cut-offs in other NCI protocols can differ. Some entries show no survivor count and are marked so; the dose need not have been tolerated. Schedule codes are those of the source, read here as Q, the interval in days (D) or hours (H), X, the number of doses. Some entries hold several experiments; the values are given in rising order. Signs of the kind (2×) stand for listed records that agree. Some schedules carry Z or #; the key to these is not given.

System: L1210 leukemia ip in BDF1 mice, survival T/C
Test: NCI In Vivo Anticancer Drug Screen. Data for tumor model L1210 Leukemia (intraperitoneal) in B6D2F1 (BDF1) mice
Details: T/C endpoint: mean survival time, higher T/C = longer survival

## OC1OC(CN(CCCl)CCCl)C(O)C1O (stereo not given)
dose: 0.28 mg/kg/injection, schedule: Q01DX009 (ip), vehicle: saline
  T/C: 107 % of control [survivor count not shown]
dose: 0.34 mg/kg/injection, schedule: Q04DX003 (ip), vehicle: saline
  T/C: 108 % of control [survivor count not shown]
dose: 0.44 mg/kg/injection, schedule: Q04DX003 (ip), vehicle: acetone
  T/C: 120 % of control [survivor count not shown]
dose: 0.52 mg/kg/injection, schedule: Q04DX003 (ip), vehicle: saline
  T/C: 116 % of control [survivor count not shown]
dose: 0.57 mg/kg/injection, schedule: Q01DX009 (ip), vehicle: saline
  T/C: 117 % of control [survivor count not shown]
dose: 0.67 mg/kg/injection, schedule: Q04DX003 (ip), vehicle: acetone
  T/C: 120 % of control [survivor count not shown]
dose: 0.75 mg/kg/injection, schedule: Q04DX003 (ip), vehicle: saline
  T/C: 104 % of control [survivor count not shown]
dose: 0.78 mg/kg/injection, schedule: Q04DX003 (ip), vehicle: saline
  T/C: 113 % of control [survivor count not shown]
dose: 1.02 mg/kg/injection, schedule: Q04DX003 (ip), vehicle: saline
  T/C: 131 [survivor count not shown], 142 [survivor count not shown], 150 % of control [survivor count not shown]
dose: 1.15 mg/kg/injection, schedule: Q01DX009 (ip), vehicle: saline
  T/C: 126 % of control [survivor count not shown]
dose: 1.5 mg/kg/injection, schedule: Q04DX003 (ip), vehicle: saline
  T/C: 91 % of control [survivor count not shown]
dose: 1.56 mg/kg/injection, schedule: Q04DX003 (ip), vehicle: saline
  T/C: 104 [survivor count not shown], 126 [survivor count not shown], 138 [survivor count not shown], 140 % of control [survivor count not shown]
dose: 2.05 mg/kg/injection, schedule: Q01DX001 (ip), vehicle: saline
  T/C: 139 % of control [survivor count not shown]
dose: 2.3 mg/kg/injection, schedule: Q01DX Z (ip), vehicle: methylcellulose (MC)
  T/C: 119 % of control [survivor count not shown]
dose: 2.34 mg/kg/injection, schedule: Q04DX003 (ip), vehicle: saline
  T/C: 127 [survivor count not shown] (2×) and 131 % of control [survivor count not shown]
dose: 3.0 mg/kg/injection, schedule: Q04DX003 (ip), vehicle: saline
  T/C: 112 % of control [survivor count not shown]
dose: 3.12 mg/kg/injection, schedule: Q01DX001 (ip), vehicle: saline
  T/C: 123 [survivor count not shown] and 134 % of control [survivor count not shown]
dose: 3.12 mg/kg/injection, schedule: Q04DX003 (ip), vehicle: saline
  T/C: 138 % of control [survivor count not shown]
dose: 3.5 mg/kg/injection, schedule: Q01DX Z (ip), vehicle: carboxymethylcellulose (CMC)
  T/C: 110 % of control [survivor count not shown]
dose: 3.5 mg/kg/injection, schedule: Q01DX Z (ip), vehicle: methylcellulose (MC)
  T/C: 117 % of control [survivor count not shown]
dose: 4.68 mg/kg/injection, schedule: Q01DX001 (ip), vehicle: saline
  T/C: 121 % of control [survivor count not shown]
dose: 5.3 mg/kg/injection, schedule: Q01DX Z (ip), vehicle: carboxymethylcellulose (CMC)
  T/C: 128 % of control [survivor count not shown]
dose: 5.3 mg/kg/injection, schedule: Q01DX Z (ip), vehicle: methylcellulose (MC)
  T/C: 126 [survivor count not shown] and 127 % of control [survivor count not shown]
dose: 6.0 mg/kg/injection, schedule: Q04DX003 (ip), vehicle: saline
  T/C: 134 % of control [survivor count not shown]
dose: 6.25 mg/kg/injection, schedule: Q01DX001 (ip), vehicle: saline
  T/C: 123 % of control [survivor count not shown]
dose: 6.25 mg/kg/injection, schedule: Q04DX003 (ip), vehicle: saline
  T/C: 129 % of control [survivor count not shown]
dose: 8.0 mg/kg/injection, schedule: Q01DX Z (ip), vehicle: carboxymethylcellulose (CMC)
  T/C: 112 % of control [survivor count not shown]
dose: 8.0 mg/kg/injection, schedule: Q01DX Z (ip), vehicle: methylcellulose (MC)
  T/C: 121 [survivor count not shown], 122 [survivor count not shown], 131 % of control [survivor count not shown]
dose: 9.2 mg/kg/injection, schedule: Q04DX003 (ip), vehicle: acetone
  T/C: 91 % of control [survivor count not shown]
dose: 12.0 mg/kg/injection, schedule: Q01DX Z (ip), vehicle: methylcellulose (MC)
  T/C: 106 [survivor count not shown] and 117 % of control [survivor count not shown]
dose: 12.0 mg/kg/injection, schedule: Q04DX003 (ip), vehicle: saline
  T/C: 96 % of control [survivor count not shown]
dose: 12.5 mg/kg/injection, schedule: Q01DX001 (ip), vehicle: saline
  T/C: 126 % of control [survivor count not shown]
dose: 24.0 mg/kg/injection, schedule: Q04DX003 (ip), vehicle: saline
  T/C: 100 % of control [survivor count not shown]

## C[N+](CCCl)(CCCl)Cc1ccc([N+](=O)[O-])cc1
dose: 50.0 mg/kg/injection, schedule: Q01DX001 (ip), vehicle: carboxymethylcellulose (CMC)
  T/C: 110 % of control [survivor count not shown]
dose: 100.0 mg/kg/injection, schedule: Q01DX001 (ip), vehicle: carboxymethylcellulose (CMC)
  T/C: 104 % of control [survivor count not shown]
